What all share (test): SEC; S200 SMART column; after dilution with monomerization buffer (15% glycerol, 20 mM HEPES pH 7.4, 100 mM NaCl, 0.1 mM TCEP) and incubation overnight at 15°C; both purified
Background: In gel filtration, larger molecules generally elute earlier.

The target of assay [1] is E. coli DNA polymerase III α subunit (residues 1-917) 3mPHP mutant (R10H, F44H, R203H) (E. coli) (UniProt P10443).
Assay [2] addresses E. coli DNA polymerase III α subunit (residues 1-917) 4mPHP mutant (R10H, F44H, G134C, R203H) (E. coli) (UniProt P10443).
Assay [3] addresses E. coli DNA polymerase III α subunit (residues 1-917) 5mPHP mutant (R10H, F44H, D69E, G134C, R203H) (E. coli) (UniProt P10443).
The target of assay [4] is E. coli DNA polymerase III α subunit, truncated version (residues 1-917), wild type (E. coli) (UniProt P10443).

Results are given in words; binding and its absence hold for the method and conditions named.

Consider “E. coli DNA polymerase III α subunit (residues 1-917) 3mPHP mutant (R10H, F44H, R203H) (from UniProt P10443 1-917) (enzyme)”, for which the binding entry in assay [1] is “no binding”.

Take “E. coli DNA polymerase III α subunit (residues 1-917) 4mPHP mutant (R10H, F44H, G134C, R203H) (from UniProt P10443 1-917) (enzyme)”: the binding entry in assay [2] was “no binding”.

Consider “E. coli DNA polymerase III α subunit (residues 1-917) 5mPHP mutant (R10H, F44H, D69E, G134C, R203H) (from UniProt P10443 1-917) (enzyme)”, for which, in assay [3], the binding result was “no binding”.

With “E. coli DNA polymerase III α subunit, truncated version (residues 1-917), wild type (from UniProt P10443 1-917) (enzyme)”, the binding entry in assay [4] is on record as “no binding”.

These data come from PMC3666897.
